Experimental data reported in US20210077501A1, “COMPOSITIONS FOR PREVENTING OR TREATING UVEITIS” (Chong Kun Dang Pharmaceutical Corp., priority 2018, published 2021).
Some entries share one result that the patent states for a list of compounds.

System: CTLA4 (cytotoxic T-lymphocyte-associated protein 4) in the regulatory T cells
Assay: CTLA4 expression in regulatory T cells (iTreg) by flow cytometry
Format: cell-based, mouse
Conditions: at a concentration of 500 nM or more
Protocol: To identify if the compounds according to the present invention regulate a function of regulatory T cells in immune responses, compounds 255, 280, 374, 416 and 476 were treated, and then an expression level of an immune checkpoint receptor CTLA4 (cytotoxic T-lymphocyte-associated protein 4) in the regulatory T cells was measured by means of flow cytometry.
Specifically, a six-week old C57BL6 male mice were supplied from Central Lab Animal Inc., then acclimated for one week, and then used in an experiment. A spleen was isolated from the mouse, and then treated with collagenase D (Roche, 11088866001), such that splenocytes were isolated therefrom. CD4+CD25-T cells were isolated by means of a CD4+CD25+ regulatory T cell isolation kit (Miltenyi Biotec, 130-091-041), and then CD4+CD25-T cells (at a ratio of 5×10^5 cells/well) were treated with an anti-CD3E/anti-CD28 mAb bead (T cell activation/expansion kit, Miltenyi Biotec, 130-093627) and a mouse recombinant TGF-β2 for six days, such that they were differentiated into iTreg. A test drug was simultaneously treated for six days, during which the cells were differentiated into iTreg. After that, the cells were incubated by means of anti-CD4/anti-CD25 mAb (eBioscience, 25-0042-82, 17-0251-82) at 4° C. for 20 minutes, and then labeling was performed. For intracytoplasmic staining, permeabilization was performed by means of Fix/permeabilization buffer (eBioscience, 00-5523-00), then labeling was performed by means of anti-FOXP3-Alexafluor488 (eBioscience, 53-5773-82) and anti-CTLA4-PE (eBioscience, 12-1522-82), and then flow cytometry was performed by means of FACS LSR Fortessa (BD bioscience).

Row | Compound | T cells in which CTLA4 expression was increased [%]
1 | O=C(NO)c1ccc(CN(C(=O)N2CCOCC2)c2cccc(Br)c2)cc1 [Compound 255, N-(3-bromophenyl)-N-(4-(hydroxycarbamoyl)benzyl)morpholine-4-carboxamide] | ≥ 40
2 | O=C(NO)c1ccc(CN(C(=O)N2CCOCC2)c2cccc(C(F)(F)F)c2)cc1 [Compound 374, N-(4-(hydroxycarbamoyl)benzyl)-N-(3-(trifluoromethyl)phenyl)morpholine-4-carboxamide] | ≥ 40
3 | O=C(NO)c1ccc(CN(C(=O)N2CC(F)(F)C2)c2cccc(C(F)(F)F)c2)cc1 [Compound 476, 3,3-difluoro-N-(4-(hydroxycarbamoyl)benzyl)-N-(3-(trifluoromethyl)phenyl)azetidine-1-carboxamide] | ≥ 40
